Construct, isoform or probe ends are uncertain for at least one entry. For part of these data: Where a protein sequence is shown, tags need not be part of it. A value given as a limit tells only on which side of the number the result lay.

Assay in all cases: activity assay
Series [1] deals with T1, KOD DNA polymerase (Thermococcus kodakaraensis KOD1) (UniProt P56689).
T1 sequence: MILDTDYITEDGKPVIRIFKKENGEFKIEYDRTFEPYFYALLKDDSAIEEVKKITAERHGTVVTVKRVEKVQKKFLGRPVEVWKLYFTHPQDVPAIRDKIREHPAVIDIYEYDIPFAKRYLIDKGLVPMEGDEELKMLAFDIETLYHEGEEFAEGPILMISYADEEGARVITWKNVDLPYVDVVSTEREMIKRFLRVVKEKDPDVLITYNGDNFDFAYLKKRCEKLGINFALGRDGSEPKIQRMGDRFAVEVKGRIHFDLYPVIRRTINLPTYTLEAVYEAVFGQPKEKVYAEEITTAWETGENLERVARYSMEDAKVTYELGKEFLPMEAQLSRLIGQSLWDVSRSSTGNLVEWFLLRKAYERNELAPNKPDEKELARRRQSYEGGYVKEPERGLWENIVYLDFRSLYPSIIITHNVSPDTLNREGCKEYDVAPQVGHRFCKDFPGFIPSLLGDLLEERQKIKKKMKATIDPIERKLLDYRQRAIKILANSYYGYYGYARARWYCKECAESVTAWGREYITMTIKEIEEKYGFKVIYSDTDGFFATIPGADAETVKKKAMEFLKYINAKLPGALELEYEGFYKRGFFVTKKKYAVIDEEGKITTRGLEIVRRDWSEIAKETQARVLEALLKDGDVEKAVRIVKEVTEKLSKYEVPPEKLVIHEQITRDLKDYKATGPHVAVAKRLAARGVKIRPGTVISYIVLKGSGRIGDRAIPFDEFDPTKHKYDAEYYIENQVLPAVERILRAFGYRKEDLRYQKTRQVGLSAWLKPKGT
Conditions: primer elongation, alkaline agarose; 150 fmol polymerase, 1.5 pmol DNA; 75 C, 2 mM MgCl2, 10 mM KCl; processivity supposed 5 kb or more; purified recombinant protein.

In series [2] the test system is KOD DNA polymerase + KOD-PCNA (Thermococcus kodakaraensis KOD1). As to conditions: primer elongation with 30-fold molar PCNA over polymerase; 75 C, 2 mM MgCl2; about 3x rate without PCNA; purified recombinant protein.
Series [3] concerns KOD DNA polymerase + KOD-PCNA + KOD-RFC complex (mRFCS/RFCL) (Thermococcus kodakaraensis KOD1). Conditions: primer elongation with PCNA and RFC; 0.5-2 kb signal diminished vs PCNA only; purified recombinant protein.

Consider “CGCCAGGGTTTTCCCAGTCACGAC [M13 P7 primer annealed to M13mp18 circular ssDNA]”, for which the activity on this sequence worked out at 40 bases/s in series [1] and 120 bases/s in series [2]. The activity on this sequence (fold synthesized DNA vs polymerase alone) in series [3] was above 2.

Values taken from US7384739.
